This test addresses T1, BORF2-3xFLAG (Epstein-Barr virus (EBV)) (UniProt P03190).
T1 sequence: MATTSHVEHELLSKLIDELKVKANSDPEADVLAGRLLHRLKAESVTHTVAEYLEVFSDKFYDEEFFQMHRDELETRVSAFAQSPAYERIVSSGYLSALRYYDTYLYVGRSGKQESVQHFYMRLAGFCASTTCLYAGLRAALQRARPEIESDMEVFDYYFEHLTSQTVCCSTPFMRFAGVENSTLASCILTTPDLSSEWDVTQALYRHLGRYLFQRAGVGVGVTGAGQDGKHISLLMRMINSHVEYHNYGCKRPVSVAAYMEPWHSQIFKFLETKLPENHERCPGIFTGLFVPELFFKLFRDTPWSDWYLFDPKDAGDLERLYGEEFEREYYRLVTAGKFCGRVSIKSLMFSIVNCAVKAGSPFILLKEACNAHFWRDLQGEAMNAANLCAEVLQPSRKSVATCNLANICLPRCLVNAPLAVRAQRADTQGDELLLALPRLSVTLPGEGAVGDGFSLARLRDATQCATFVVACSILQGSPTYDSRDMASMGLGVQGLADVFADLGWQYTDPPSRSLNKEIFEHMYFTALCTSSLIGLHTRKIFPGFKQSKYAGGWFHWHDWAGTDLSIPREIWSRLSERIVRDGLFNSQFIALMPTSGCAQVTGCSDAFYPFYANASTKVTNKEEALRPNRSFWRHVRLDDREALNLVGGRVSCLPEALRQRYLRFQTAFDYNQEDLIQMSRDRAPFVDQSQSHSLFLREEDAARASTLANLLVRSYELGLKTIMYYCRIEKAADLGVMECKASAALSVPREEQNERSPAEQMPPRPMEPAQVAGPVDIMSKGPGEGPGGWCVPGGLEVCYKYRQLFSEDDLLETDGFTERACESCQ
Kind of test: co-IP; 293T co-transfected with BORF2-3xFLAG and A3-eGFP constructs (100 ng each); lysis in 50 mM tris-HCl (pH 7.5), 150 mM NaCl, 10% glycerol, 0.5% Tergitol, RNase A; anti-FLAG magnetic beads overnight at 4°C; FLAG peptide elution; anti-GFP blot.

Chains of the proteins cited; added tags and fusions are not shown. Residues count along the entry.
UniProt Q9HC16, residues 197-384: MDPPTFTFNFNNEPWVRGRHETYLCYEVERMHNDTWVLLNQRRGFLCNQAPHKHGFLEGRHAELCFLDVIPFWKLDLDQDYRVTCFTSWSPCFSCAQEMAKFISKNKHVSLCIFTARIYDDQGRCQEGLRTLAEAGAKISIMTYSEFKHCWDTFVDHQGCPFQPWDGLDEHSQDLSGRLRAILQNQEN

Here are results for 1 substance from article PMC9045721.

No constants are given. Whether binding was seen depends on the method and setting. In cells and extracts the contact can be indirect. Where a sequence is shown, tags or fusion partners need not be part of it.

For “A3Gctd(197-384)-eGFP (from UniProt Q9HC16-1 197-384) (domain or fragment)”, the binding result was “no binding”.
